This is an account of results in patent publication US20110091971A1, “Differentiation of Pluripotent Stem Cells” (priority 2008, published 2011).

Entries after “also recorded” stand apart in the source; their conditions may differ.

This data set concerns human activin A. Nature of the data set: activin A ELISA (DuoSet kit) for total activin A protein in supernatants and purified material. To be noted: for ELISA concentration (ng/ml) / ELISA concentration: concentrated culture supernatants, HEK 293F, Example 11; for Mean Results MEAN CCN: 10x concentrated supernatant, final calculated stock concentration; for ELISA concentration (activin A protein in supernatant): concentrated supernatant (10x; ACTD3 4x).

B1: ACTN56: activin A variant peptide, SEQ ID 57 (protein)
chain: GLECDGKVNICCKKQSFGQAKDIGWNDWIIAPSGYHGGSCTGECPSHIAGTSGSSLSFHSTVINHYRMRGHSPFANLKSCCAPTKLRPMSMLYYDDGQNIIKKDIQNMVVEECGCV
Regarding B1, the “ELISA concentration (ng/ml)” value was “not present in sufficient amounts to measure by ELISA; also recorded: not detectable”.

B2: ACTN65: activin A variant peptide, SEQ ID 66 (protein)
chain: GLECDGKVNICCKKQSFGQTKDIGWNDWIIAPSGYHGGSCSGECPSHIAGTSGSSLSFHSTVINHYRMRGHSPFANLKSCCSPTKLRPMSMLYYDDGQNIIKKDIQGMKVEECGCT
Take B2: the “ELISA concentration (ng/ml)” value is on record as “not present in sufficient amounts to measure by ELISA; also recorded: not detectable”.

B3: ACTN69: activin A variant peptide, SEQ ID 70 (protein)
chain: GLECDGKVNICCKKQSFGKTKDIGWNDWIIAPSGYHGGGCTGECPSHIAGTSGSSLSFHSTVINHYRMRGHSPFANLKSCCSPTKLRPMSMLYYDDGQNIIKKDIQQMVVEECGCT
In the case of B3, the “ELISA concentration (ng/ml)” value is given as “not present in sufficient amounts to measure by ELISA; also recorded: not detectable”.

B4: ACTN4: activin A variant peptide, SEQ ID 5 (protein)
chain: GLECDGKVNLCCKKQLFVSFKDIGWNDWIIAPSGYHANHCSGLCPSHIAGTSGSSLSFHSTVINHYRMRGHSPFSDMGACCVPTKLRPMSMLYYDDGQNIIKKDIQNMIVEECGCS
Regarding B4, the “Mean Results MEAN CCN” value was 719 ng/mL and the “ELISA concentration (ng/ml)” value was 1,874 ng/ml.

B5: ACTN48: activin A variant peptide, SEQ ID 49 (protein)
chain: GLECDGKVNLCCKKQNFVSFKDIGWNDWIIAPSGYHANECSGLCPSHIAGTSGSSLSFHSTVINHYRMRGHSPFANMGACCIPTKLRPMSMLYYDDGQNIIKKDIQNMIVEECGCS
Consider B5, for which the “ELISA concentration (ng/ml)” value is 7,587 ng/ml.

B6: ACTN34: activin A variant peptide, SEQ ID 35 (protein)
chain: GLECDGKVNYCCKKQLFVSFKDIGWNDWIIAPSGYHANHCTGKCPSHIAGTSGSSLSFHSTVINHYRMRGHSPFSDLGSCCVPTKLRPMSMLYYDDGQNIIKKDIQNMIVEECGCS
Take B6: the “Mean Results MEAN CCN” value was 830 ng/mL, the “ELISA concentration (ng/ml)” value is reported as 1,154 ng/ml and the “ELISA concentration (activin A protein in supernatant)” value is 1161 ng/mL.

B7: ACTN29: activin A variant peptide, SEQ ID 30 (protein)
chain: GLECDGKVNLCCKKQLFVSFKDIGWNDWIIAPSGYHANHCSGKCPSHIAGTSGSSLSFHSTVINHYRMRGHSPFSDMGSCCIPTKLRPMSMLYYDDGQNIIKKDIQNMIVEECGCS
As for B7, the “ELISA concentration (ng/ml)” value was 1,392 ng/ml.

B8: ACTN12: activin A variant peptide, SEQ ID 13 (protein)
chain: GLECDGKVNYCCKKQNFVSFKDIGWNDWIIAPSGYHANECSGLCPSHIAGTSGSSLSFHSTVINHYRMRGHSPFSQMGSCCIPTKLRPMSMLYYDDGQNIIKKDIQNMIVEECGCS
Take B8: the “ELISA concentration” value was determined as 310 ng/mL.

B9: ACTN28: activin A variant peptide, SEQ ID 29 (protein)
chain: GLECDGKVNYCCKKQLFVSFKDIGWNDWIIAPSGYHANHCSGKCPSHIAGTSGSSLSFHSTVINHYRMRGHSPFANMGSCCIPTKLRPMSMLYYDDGQNIIKKDIQNMIVEECGCS
Turning to B9, the “ELISA concentration” value is 810 ng/mL.

B10: ACTN31: activin A variant peptide, SEQ ID 32 (protein)
chain: GLECDGKVNTCCKKQLFVSFKDIGWNDWIIAPSGYHANHCSGKCPSHIAGTSGSSLSFHSTVINHYRMRGHSPFSDMGSCCIPTKLRPMSMLYYDDGQNIIKKDIQNMIVEECGCS
On to B10, for which the “ELISA concentration (ng/ml)” value was 3,243 ng/ml.

B11: ACTN11: activin A variant peptide, SEQ ID 12 (protein)
chain: GLECDGKVNLCCKKQLFVSFKDIGWNDWIIAPSGYHANHCSGLCPSHIAGTSGSSLSFHSTVINHYRMRGHSPFAQMGACCIPTKLRPMSMLYYDDGQNIIKKDIQNMIVEECGCS
Regarding B11, the “ELISA concentration” value turned out to be 386 ng/mL.

B12: ACTN47: activin A variant peptide, SEQ ID 48 (protein)
chain: GLECDGKVNYCCKKQNFVSFKDIGWNDWIIAPSGYHANECSGKCPSHIAGTSGSSLSFHSTVINHYRMRGHSPFSDMGSCCIPTKLRPMSMLYYDDGQNIIKKDIQNMIVEECGCS
For the molecule B12, the “ELISA concentration” value was 179 ng/mL.

B13: ACTN40: activin A variant peptide, SEQ ID 41 (protein)
chain: GLECDGKVNLCCKKQLFVSFKDIGWNDWIIAPSGYHANHCAGLCPSHIAGTSGSSLSFHSTVINHYRMRGHSPFSNMGSCCVPTKLRPMSMLYYDDGQNIIKKDIQNMIVEECGCS
With B13, the “Mean Results MEAN CCN” value was 584 ng/mL and the “ELISA concentration (ng/ml)” value is 2,041 ng/ml.

B14: ACTN16: activin A variant peptide, SEQ ID 17 (protein)
chain: GLECDGKVNLCCKKQLFVSFKDIGWNDWIIAPSGYHANHCSGLCPSHIAGTSGSSLSFHSTVINHYRMRGHSPFSQMGACCVPTKLRPMSMLYYDDGQNIIKKDIQNMIVEECGCS
Regarding B14, the “Mean Results MEAN CCN” value was 41 ng/mL, the “ELISA concentration (ng/ml)” value was 2,113 ng/ml and the “ELISA concentration (activin A protein in supernatant)” value turned out to be 968 ng/mL.

B15: ACTN27: activin A variant peptide, SEQ ID 28 (protein)
chain: GLECDGKVNLCCKKQLFVSFKDIGWNDWIIAPSGYHANHCDGKCPSHIAGTSGSSLSFHSTVINHYRMRGHSPFANRGACCIPTKLRPMSMLYYDDGQNIIKKDIQNMIVEECGCS
Turning to B15, the “ELISA concentration” value was found to be 115 ng/mL.
